Measured values: patent US11357857B2, “Excipient compounds for protein processing” (COMERA LIFE SCIENCES, INC., priority 2014, dated 2022)
At least one compound was matched to its structure with a doubt left.

Experiments:
[1] = test system: bovine gamma globulin (BGG); experiment: Viscosity of 280 mg/mL BGG formulations in 50 mM histidine HCl pH 6 with excipient, cone and plate viscometer (Examples 1, 2, 4-6); format: physicochemical; settings: excipient 43 mg/mL
[2] = Caffeine solubility testing with co-solutes at ambient temperature (Examples 32-33); settings: co-solute 46 mg/mL, caffeine 80 mg/mL
Procedure: Prepared solutions were used either neat or diluted with deionized water.
A small magnetic stir bar was added to the vial, and the solution was allowed to mix vigorously on a stir plate for about 10 minutes.

Nc1ccc(C(=O)O)cc1 [Sodium aminobenzoate]
Viscosity [1]: 48 cP
Viscosity Reduction [1]: 39%
Observation of caffeine dissolution [2]: DND
